Values joined by “and” are separate entries in the source; they are usually repeats but may differ in a detail not shown here. Identical values can stand only once. Hit rate of the full screen: of about 580,000 compounds, about 6,100 (1.1%) were called active. The inconclusive results got no clear call from the source; some entries with a clear call stand among them for comparison. Calls follow the shape of the dose curve; as a rule, active = well fitted inhibition curve with a large enough effect; inconclusive = small, poorly fitted or top-dose-only effect, or another doubt; inactive = no such curve, though single readings can be large or run the other way. Potencies of inconclusive entries are doubtful fits and often do not repeat.
target: Polyunsaturated fatty acid lipoxygenase ALOX12 (Homo sapiens) (UniProt P18054); assay: Primary qHTS assay for inhibitors of human arachidonate 12S-lipoxygenase (ALOX12): Round 2; settings: purified 12hLO, xylenol orange hydroperoxide absorbance; activity change, negative = inhibition: at 108 µM (top of the series) unless noted
In short: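 Purified human 12hLO at 150 nM in 25 mM Hepes, 0.01% Triton X-100, pH 7.0, preincubated 15 min at room temperature with compound. Reaction started with 40 uM arachidonic acid, 30 min at room temperature. Hydroperoxide measured by Fe-xylenol orange, 573/405 nm absorbance ratio.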
% is scaled to controls: 0 for no effect and ±100 for the full control effect; potency is read from the fitted curve at half-maximal effect.

Protein sequences, listed by entry. Tags and fused reporters are not part of them. Lines headed by an entry give the natural chain unless they say otherwise; changes in a name come on top.
UniProt P18054: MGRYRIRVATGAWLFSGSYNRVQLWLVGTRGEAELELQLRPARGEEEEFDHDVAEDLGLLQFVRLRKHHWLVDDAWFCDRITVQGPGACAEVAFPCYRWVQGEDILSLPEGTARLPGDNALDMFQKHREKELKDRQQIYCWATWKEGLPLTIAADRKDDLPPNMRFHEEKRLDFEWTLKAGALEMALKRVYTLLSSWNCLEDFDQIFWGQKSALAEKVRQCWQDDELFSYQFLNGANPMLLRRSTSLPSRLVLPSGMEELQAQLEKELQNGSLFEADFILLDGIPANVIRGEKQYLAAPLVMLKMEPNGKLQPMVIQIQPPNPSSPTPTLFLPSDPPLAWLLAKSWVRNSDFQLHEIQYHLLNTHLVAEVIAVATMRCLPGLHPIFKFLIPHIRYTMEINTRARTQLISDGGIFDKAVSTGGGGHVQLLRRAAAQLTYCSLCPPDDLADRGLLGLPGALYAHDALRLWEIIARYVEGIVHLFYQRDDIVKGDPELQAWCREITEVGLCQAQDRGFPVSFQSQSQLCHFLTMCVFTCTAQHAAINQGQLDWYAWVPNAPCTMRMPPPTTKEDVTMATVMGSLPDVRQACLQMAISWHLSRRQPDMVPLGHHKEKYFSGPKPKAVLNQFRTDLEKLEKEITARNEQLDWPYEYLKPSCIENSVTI

SMILES	activity change, negative = inhibition	Potency
COc1cc(CN2CCCC(C)C2)ccc1OCc1ccccc1 (centres undefined)	inactive: 0%	–
C(#Cc1ccc(C#CC[N+]2(Cc3ccccc3)CCCCC2)cc1)C[N+]1(Cc2ccccc2)CCCCC1	–	inconclusive: 44.7 µM [inhibitor, partial curve, poor fit]
CCOc1ncccc1NC(=O)N1CCN(c2cnccn2)CC1	inactive: 12.9%	–
Cc1nnc(NC(=O)CSc2nnc(C3CC3)n2C(C)C)s1	inactive: 5.4%	–
Cc1ccc2nc(NS(=O)(=O)c3ccc(Cl)cc3)c(Nc3ccc(C(=O)O)cc3)nc2c1	–	inconclusive: 44.7 µM [inhibitor, partial curve, poor fit]
Cn1cnc(S(=O)(=O)N2CCC(C(=O)N3CCN(c4ccc(Cl)cc4)CC3)CC2)c1	–	inconclusive: 112 µM [inhibitor, partial curve, poor fit]
OCC1(Cc2ccccc2)CCN(CCCC2CCCC2)CC1	–	inconclusive: 31.6 µM [inhibitor, single point]
CN(Cc1ccccc1)C(=O)N1CCN(C(=O)c2cc(-c3cccc(Cl)c3)n[nH]2)CC1	inactive: -4.76%	–
COc1ccccc1NC(=O)CC1S/C(=N/N=C(\C)C2CCCCC2)NC1=O (centres undefined)	inactive: 25.4%	–
COCCNC(=O)c1cc(-c2ccccc2C)nn1CC1CC(c2cccnc2)=NO1 (centres undefined)	–	inconclusive: 1.41 µM [inhibitor, partial curve, poor fit]
Cc1nonc1NC(=O)CSc1nnc(-c2ccoc2C)n1CC(C)C	inactive: 3.7%	–
N[C@H](C(=O)O)[C@@H](O)c1ccc(O)c(O)c1	–	inconclusive: 0.051 µM [inhibitor, full curve]
Cc1ccc2nc(SCC(=O)NCc3ccccc3)nc(=O)n2c1	–	inconclusive: 50.1 µM [inhibitor, full curve, poor fit]
O=c1/c(=C\c2cccc(O)c2)sc2nc(-c3ccccc3)c(-c3ccccc3)n12	inactive: -18.1%	–
CCCCCC(=O)N1CCN(S(=O)(=O)c2ccc3c(c2)OCCO3)CC1	–	inconclusive: 31.6 µM [inhibitor, partial curve, poor fit]
CCN(CC)c1ccc(N)cc1S(=O)(=O)Nc1ccccc1OC	–	inconclusive: 35.5 µM [inhibitor, partial curve]
N#C/C(=C/c1ccc(-c2ccc(Cl)cc2)o1)C(=O)NC1CC1	–	inconclusive: 50.1 µM [inhibitor, partial curve, poor fit]
CC(=O)Nc1ccc(S(=O)(=O)Nc2nc3ccc([N+](=O)[O-])cc3s2)cc1	–	inconclusive: 44.7 µM [inhibitor, partial curve, poor fit]
NC(=O)C1CCCN(c2nc(-c3ccncc3)nc3ccccc23)C1 (centres undefined)	–	inconclusive: 141 µM [inhibitor, single point]
CCCCn1nc2cc(C(=O)N(CC)c3ccc(OC)cc3)ccc2c1OCC	–	inconclusive: 50.1 µM [inhibitor, partial curve, poor fit]
COc1cccc(CN2CCc3nc(C4CC4)nc(-c4ccc(O)cc4)c3C2)c1	–	inconclusive: 56.2 µM [inhibitor, partial curve]
CCCCS(=O)(=O)N1C[C@@H](C(N)=O)[C@H](c2n[nH]c(C)n2)C1	inactive: 10.4%	–

SMILES	activity change, negative = inhibition	Potency
CCOc1cc(/C=C/C(=O)c2ccc(C)cc2)cc(Br)c1O	–	active: 39.8 µM
CC1(C)CC(=O)C/C(=N\NC(=O)C2CC23CCC3)C1 (centres undefined)	inactive: 294%	–
CCCCn1c(N)c(Sc2ccc([N+](=O)[O-])cc2)c(=O)[nH]c1=O	–	inconclusive: 44.7 µM [inhibitor, partial curve, poor fit]
CCOCCn1c(SC)nc2c1c(=O)[nH]c(=O)n2C	–	inconclusive: 79.4 µM [inhibitor, single point] and inconclusive: 44.7 µM [inhibitor, partial curve, poor fit]
CCc1ccc(C(=O)NNC(=O)CCc2nc3ccccc3c(=O)[nH]2)cc1	–	inconclusive: 89.1 µM [inhibitor, single point]
Cc1ccc(NC(=O)C2=Cc3cc(Cl)ccc3OC=C2)cc1	–	inconclusive: 100 µM [inhibitor, single point]
Cc1ccc(COc2coc(CO)cc2=O)cc1	–	inconclusive: 20 µM [inhibitor, partial curve, poor fit]
CC1(C)NC(=O)N(Cc2cc(=O)n3ccsc3n2)C1=O	inactive: 12.9%	–
CCOC(=O)C(=O)Nc1ncc(Cl)s1	–	inconclusive: 2.51 µM [inhibitor, full curve, poor fit]
c1ccc(-c2ccc(Oc3nc(-c4ccccc4)cs3)cc2)cc1	inactive: 29.9%	–
Cc1cc(N2CCN(C)CC2)nc2ccc(NC(=S)NCCN3CCc4ccccc4C3)cc12	–	inconclusive: 63.1 µM [inhibitor, partial curve, poor fit]
COc1ccc(NC2=Nc3cccc4cccc2c34)cc1	inactive: -10.9%	–
CCOC(=O)c1nc(C)[nH]c1C(=O)OCC	–	inconclusive: 44.7 µM [inhibitor, partial curve, poor fit]
COc1ccc(S(=O)(=O)Nc2ccc(-c3ccc4nncn4n3)cc2)c(OC)c1	–	inconclusive: 44.7 µM [inhibitor, partial curve, poor fit]
Cc1ccc(-n2c(C3CCN(C(=O)c4cc(C)ccc4C)CC3)n[nH]c2=O)cc1	–	inconclusive: 14.1 µM [inhibitor, full curve, poor fit]
CCOC(=O)C1=C(C)N=c2s/c(=C\c3ccc(OCC(=O)O)cc3)c(=O)n2C1c1ccccc1 (centres undefined)	–	inconclusive: 79.4 µM [inhibitor, partial curve, poor fit]
CCOC(=O)N1CCN(C(=O)C(NC(=O)c2ccc(CC)cc2)C(C)C)CC1 (centres undefined)	inactive: 2.85%	–
O=C1[C@H]2CN(Cc3cc(F)c(F)cc3F)C[C@H]2C(=O)N1Cc1ccc2c(c1)OCO2	–	inconclusive: 22.4 µM [inhibitor, full curve, poor fit]
CCCCNC(=S)N(CCN(C)C)Cc1cc2cc3c(cc2[nH]c1=O)OCCO3	–	inconclusive: 44.7 µM [inhibitor, partial curve, poor fit]
Cc1cccc([N+](=O)[O-])c1NC(=O)COc1ncnc2ccccc12	–	inconclusive: 39.8 µM [inhibitor, partial curve]
CC(=O)c1cccc(OC(C)C(=O)C(C#N)C(=O)NC2CC2)c1 (centres undefined)	–	inconclusive: 7.08 µM [inhibitor, full curve, poor fit]
O=C(C1CCCC1)N1CC2(CCN(C3CCCCC3)C2)Cc2ccccc21 (centres undefined)	–	inconclusive: 28.2 µM [inhibitor, full curve]

SMILES	activity change, negative = inhibition	Potency
CCCC(C)C(=O)Nc1nc(C)c(-c2csc(Nc3ccc(Cl)cc3)n2)s1 (centres undefined)	–	inconclusive: 50.1 µM [inhibitor, partial curve, poor fit]
O=C(NCc1ccncc1)c1ccc(-c2ccc(N3CCCCC3)nc2)cc1	–	inconclusive: 100 µM [inhibitor, partial curve, poor fit]
COC(=O)Cn1c(C)c(C#N)c2ccccc21	–	inconclusive: 141 µM [inhibitor, single point]
S=c1[nH]nc(C2CC2c2ccc(Cl)cc2)n1-c1ccc(Cl)cc1 (centres undefined)	–	inconclusive: 50.1 µM [inhibitor, partial curve, poor fit]
Cc1cccc2c1NC(=O)C21OCC(CO)([N+](=O)[O-])CO1 (centres undefined)	–	inconclusive: 112 µM [inhibitor, partial curve, poor fit]
C=CCOc1ccc(C2C(C(=O)c3ccc(C)o3)=C(O)C(=O)N2Cc2cccnc2)cc1 (centres undefined)	–	inconclusive: 3.16 µM [inhibitor, full curve, poor fit]
Cn1nc(C(C)(C)C)cc1C(=O)N1CCCCC1c1cc(C(=O)Nc2ccc(F)c(Cl)c2)no1 (centres undefined)	inactive: -0.0457%	–
CC(=O)N1CC2(CCN(Cc3cccc(C(N)=O)c3)CC2)Cc2ccccc21	inconclusive: -39.9% [inhibitor]	–
O=C(NCC1CCCO1)c1ccc(/C=N/O)nc1 (centres undefined)	–	inconclusive: 4.47 µM [inhibitor, full curve, poor fit]
Cc1ccsc1/C=C1/SC(N2CC(C)OC(C)C2)=NC1=O (centres undefined)	–	inconclusive: 35.5 µM [inhibitor, partial curve, poor fit]
Cn1ncc2c(Nc3cccc(Cl)c3)nc(Nc3cccc(Cl)c3)nc21	–	inconclusive: 89.1 µM [inhibitor, partial curve, poor fit]
CN1c2cccnc2CN(Cc2ccc(Cl)cc2)CC[C@H]1CO	inactive: 23.5% [at 176 µM]	–
COc1ccc(/C=N/Nc2cc(C)nc(N3CCOCC3)n2)cc1	inactive: -24.2%	–
COc1ccc(Cc2nnc(NC(=O)C3CC(=O)N(c4ccc(OC)cc4)C3)s2)cc1 (centres undefined)	–	inconclusive: 56.2 µM [inhibitor, partial curve, poor fit]
Cc1nnc(SCC(=O)Nc2nc3c(s2)CC(C)CC3)s1 (centres undefined)	inactive: 12.8%	–
O=C(COC(=O)c1ccc([N+](=O)[O-])o1)NCCc1ccccc1	–	inconclusive: 6.31 µM [inhibitor, full curve, poor fit]
Cc1cccc(CC2S/C(=N/c3ccccn3)NC2=O)c1 (centres undefined)	–	inconclusive: 35.5 µM [inhibitor, single point]
CCC(/C=C1\Sc2ccc(OC)cc2N1CCO)=C\c1sc2ccc(OC)cc2[n+]1CCO	–	inconclusive: 100 µM [inhibitor, partial curve, poor fit]
Cc1ccc(O)c(N=Cc2cccs2)c1	–	inconclusive: 50.1 µM [inhibitor, partial curve, poor fit]
COc1cc([N+](=O)[O-])ccc1NC(=O)COC(=O)c1c[nH]c(=O)[nH]c1=O	–	inconclusive: 44.7 µM [inhibitor, partial curve, poor fit]
